Values from PubChem BioAssay AID1224826 (NIAID, 2016).

Purpose: 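Regulators of Tlr4 signalling leading to Tnf-alpha expression in macrophages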 (primary screen)
Cells: RAW264.7 G9 macrophages from mouse bearing reporters for p65 (GFP) and the Tnf promoter (mCherry)
Reagent: siRNA pool against mouse genes, 100 nM
Duration: 16 h of LPS stimulation, after 2 days of siRNA transfection
Treatment: bacterial lipopolysaccharide (Salmonella minnesota R595), 10 ng/ml
Measured: 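Nuclear mCherry signal of the Tnf promoter reporter measured by imaging after background removal, scaled to each plate median and turned into robust z-scores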
Reading the numbers: Tnf reporter robust z-score: higher = stronger Tnf promoter reporter signal after LPS
Call rule: 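a well counts as active at a score of -1.3 or below (Tlr4 knock-down control median) or above 3 (raised signal); controls and wells holding fewer than 50 cells are excluded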
Meaning of the calls: active = Tnf reporter clearly lowered or raised; inactive = no clear change in Tnf reporter
This is a random part of about 17,000 reagents tested. About 1,110 of all reagents (6.6%) were called active. 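Active means lowered or raised reporter signal; replicate intensities are raw and not normalised per plate.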 Further read-outs or replicates are left out here.

gene	Tnf reporter robust z-score	fewer than 50 cells in well	Outcome
Igfbp2	0.54	enough cells in well	inactive
Ifna14	-0.4	enough cells in well	inactive
Fads1	-0.53	enough cells in well	inactive
Upb1		fewer than 50 cells per well; well left out of calls	inactive
Fstl1	-1.02	enough cells in well	inactive
H2ax	0.79	enough cells in well	inactive
Srd5a1	-0.6	enough cells in well	inactive
Mmp12	0.02	enough cells in well	inactive
Akap7	0.13	enough cells in well	inactive
Myo1d	0.74	enough cells in well	inactive
Mnmip1	2.46	enough cells in well	inactive
Alpk3	0.75	enough cells in well	inactive
Hells	0.15	enough cells in well	inactive
Hbb-bh1	0.39	enough cells in well	inactive
Mindy4	0.83	enough cells in well	inactive
Grid2ip	0.36	enough cells in well	inactive
Dele1		fewer than 50 cells per well; well left out of calls	inactive
Sgsm1	-0.37	enough cells in well	inactive
Bcas2	0.26	enough cells in well	inactive
Or14j1	1.38	enough cells in well	inactive
Klra15	-0.39	enough cells in well	inactive
Uba1	1.31	enough cells in well	inactive
Gstm3	-1.65	enough cells in well	active
Cpd	0.2	enough cells in well	inactive
Med29		fewer than 50 cells per well; well left out of calls	inactive
Slc25a23	-0.27	enough cells in well	inactive

The list goes on; the last 8 above are carried over.
gene	Tnf reporter robust z-score	fewer than 50 cells in well	Outcome
Bcas2	0.26	enough cells in well	inactive
Or14j1	1.38	enough cells in well	inactive
Klra15	-0.39	enough cells in well	inactive
Uba1	1.31	enough cells in well	inactive
Gstm3	-1.65	enough cells in well	active
Cpd	0.2	enough cells in well	inactive
Med29		fewer than 50 cells per well; well left out of calls	inactive
Slc25a23	-0.27	enough cells in well	inactive
Mllt10	0.16	enough cells in well	inactive
Galnt2	0	enough cells in well	inactive
Pros1	-0.76	enough cells in well	inactive
C1qtnf12	-0.57	enough cells in well	inactive
Cdh11	0.26	enough cells in well	inactive
Ccnk	0.45	enough cells in well	inactive
Prss21	-0.98	enough cells in well	inactive
Pcyt1b		fewer than 50 cells per well; well left out of calls	inactive
Gab2	-0.43	enough cells in well	inactive
Rrp36	2.08	enough cells in well	inactive
Pcsk2	0.38	enough cells in well	inactive
Tmem115	2.45	enough cells in well	inactive
Pan2	-0.1	enough cells in well	inactive
Vmn1r229	-0.03	enough cells in well	inactive
Tecrl	1.41	enough cells in well	inactive
Prokr1	-0.61	enough cells in well	inactive
Uhrf1	-0.13	enough cells in well	inactive
D830014E11Rik	1.37	enough cells in well	inactive
Gtf2h3	-0.5	enough cells in well	inactive
Mrps14	1.83	enough cells in well	inactive
Cacnb3	-0.2	enough cells in well	inactive
Ndufb8	-0.12	enough cells in well	inactive
Dph1	0.65	enough cells in well	inactive
Mtag2	-0.33	enough cells in well	inactive
Tmt1a		fewer than 50 cells per well; well left out of calls	inactive
Or12e9	-0.78	enough cells in well	inactive
Pcdh18	-0.02	enough cells in well	inactive
Gabrg1	0.68	enough cells in well	inactive
Ptgdr2	-0.13	enough cells in well	inactive
Lca5		fewer than 50 cells per well; well left out of calls	inactive
P2ry12	-1	enough cells in well	inactive
Foxp1	0.33	enough cells in well	inactive
